# Measurements: the supplement of paper PMC8728848
# The list shows a part of the results.
# B1: GS13971A-bth-447-22-447 (Bacteroides thetaiotaomicron) (protein)
# chain: EDVDNERSKGMFSASQSGFSTIEVYDLGPLNKIDLSIAKAGLEDTGGTVTFSVEQSLLDSLNNADGTSYQLLPPECYTIENATYSVSPGGDRRVTGGSLVYDPHKIYNLCGFDELKYVLPLRVSSTGTPMNSDRTATLYGFIVKEAIVRLASTGGDFVVEGGTTTSPMNLDTEISFENEWDLTTSFATKGADYVDNYNSANSTYYIPLPSDFYTLPDVTIAKGKTTGGSAISLLGETLPPGNYLLPVSLGGLSGQGDASINIDKETVANYFVIKQGGPINRDHWTVTANTEEKTGEVSAAYPHNGQTISLIDGEINTFWHSKWQGGEVAPPYEIILDMGKENSVSQLGLIARQNALTSMNLEIYAGDDGETWNLIGKYFFDGSIKTEQMVPVKACDARWIRIYIPTLGSGSSVGHLAEIYVYGTDK
# Experiments:
# Experiment in all cases: glycan array binding signal (z-score within array); higher = stronger binding
# Conditions in all cases: glycan notation: IUPAC condensed, linker removed
# [1] = target: Neu5Ac(a2-6)Gal(b1-4)GlcNAc(b1-2)Man(a1-3)[Neu5Ac(a2-3)Gal(b1-4)GlcNAc(b1-2)Man(a1-6)]Man(b1-4)GlcNAc(b1-4)GlcNAc
# Outline: (§1)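 Glycan array binding is given as a within-array Z-score, which can be read as non-binding when negative. The arrays, 3228 of them, came from the Consortium for Functional Glycomics database and were retained only where the protein sequence was available. Z-scores were averaged across arrays of the same protein sequence at different concentrations or buffers and across linkers.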
# [2] = target: Neu5Ac(a2-6)Gal(b1-4)GlcNAc(b1-2)Man(a1-3)[Neu5Ac(a2-6)Gal(b1-4)GlcNAc(b1-2)Man(a1-6)]Man(b1-4)GlcNAc(b1-4)GlcNAc
# Outline: as §1
# [3] = target: Neu5Ac(a2-6)Gal(b1-4)GlcNAc(b1-2)Man(a1-3)[Neu5Ac(a2-6)Gal(b1-4)GlcNAc(b1-2)Man(a1-6)]Man(b1-4)GlcNAc(b1-4)[Fuc(a1-6)]GlcNAc
# Outline: as §1
# [4] = target: Neu5Ac(a2-6)Gal(b1-4)GlcNAc(b1-2)Man(a1-6)Man(b1-4)GlcNAc(b1-4)GlcNAc
# Outline: as §1
# [5] = target: Neu5Ac(a2-6)Gal(b1-4)GlcNAc(b1-2)Man(a1-6)[Gal(b1-4)GlcNAc(b1-2)Man(a1-3)]Man(b1-4)GlcNAc(b1-4)GlcNAc
# Outline: as §1
# [6] = target: Neu5Ac(a2-6)Gal(b1-4)GlcNAc(b1-2)Man(a1-6)[GlcNAc(b1-2)Man(a1-3)]Man(b1-4)GlcNAc(b1-4)GlcNAc
# Outline: as §1
# [7] = target: Neu5Ac(a2-6)Gal(b1-4)GlcNAc(b1-2)Man(a1-6)[Man(a1-3)]Man(b1-4)GlcNAc(b1-4)GlcNAc
# Outline: as §1
# [8] = target: Neu5Ac(a2-6)Gal(b1-4)GlcNAc(b1-2)[Neu5Ac(a2-6)Gal(b1-4)GlcNAc(b1-4)]Man(a1-3)[GlcNAc(b1-4)][Neu5Ac(a2-6)Gal(b1-4)GlcNAc(b1-2)[Neu5Ac(a2-6)Gal(b1-4)GlcNAc(b1-6)]Man(a1-6)]Man(b1-4)GlcNAc(b1-4)GlcNAc
# Outline: as §1
# [9] = target: Neu5Ac(a2-6)Gal(b1-4)GlcNAc(b1-2)[Neu5Ac(a2-6)Gal(b1-4)GlcNAc(b1-4)]Man(a1-3)[GlcNAc(b1-4)][Neu5Ac(a2-6)Gal(b1-4)GlcNAc(b1-4)Man(a1-6)]Man(b1-4)GlcNAc(b1-4)GlcNAc
# Outline: as §1
# [10] = target: Neu5Ac(a2-6)Gal(b1-4)GlcNAc(b1-2)[Neu5Ac(a2-6)Gal(b1-4)GlcNAc(b1-6)]Man(a1-6)[Neu5Ac(a2-6)Gal(b1-4)GlcNAc(b1-2)Man(a1-3)][GlcNAc(b1-4)]Man(b1-4)GlcNAc(b1-4)GlcNAc
# Outline: as §1
# [11] = target: Neu5Ac(a2-6)Gal(b1-4)GlcNAc(b1-3)Gal(b1-3)GlcNAc
# Outline: as §1
# [12] = target: Neu5Ac(a2-6)Gal(b1-4)GlcNAc(b1-3)Gal(b1-4)GlcNAc
# Outline: as §1
# [13] = target: Neu5Ac(a2-6)Gal(b1-4)GlcNAc(b1-3)Gal(b1-4)GlcNAc(b1-2)Man(a1-3)[Neu5Ac(a2-6)Gal(b1-4)GlcNAc(b1-3)Gal(b1-4)GlcNAc(b1-2)Man(a1-6)]GalNAc
# Outline: as §1
# [14] = target: Neu5Ac(a2-6)Gal(b1-4)GlcNAc(b1-3)Gal(b1-4)GlcNAc(b1-3)Gal(b1-4)GlcNAc
# Outline: as §1
# [15] = target: Neu5Ac(a2-6)Gal(b1-4)GlcNAc(b1-3)Gal(b1-4)GlcNAc(b1-3)Gal(b1-4)GlcNAc(b1-2)Man(a1-3)[Neu5Ac(a2-6)Gal(b1-4)GlcNAc(b1-3)Gal(b1-4)GlcNAc(b1-3)Gal(b1-4)GlcNAc(b1-2)Man(a1-6)]GalNAc
# Outline: as §1
# [16] = target: Neu5Ac(a2-6)Gal(b1-4)GlcNAc(b1-3)Gal(b1-4)GlcNAc(b1-3)GalNAc
# Outline: as §1
# [17] = target: Neu5Ac(a2-6)Gal(b1-4)GlcNAc(b1-3)Gal(b1-4)GlcNAc(b1-3)[Neu5Ac(a2-6)Gal(b1-4)GlcNAc(b1-3)Gal(b1-4)GlcNAc(b1-6)]GalNAc
# Outline: as §1
# [18] = target: Neu5Ac(a2-6)Gal(b1-4)GlcNAc(b1-3)Gal(b1-4)GlcNAc(b1-6)[Gal(b1-3)]GalNAc
# Outline: as §1
# [19] = target: Neu5Ac(a2-6)Gal(b1-4)GlcNAc(b1-3)Gal(b1-4)[Fuc(a1-3)]GlcNAc(b1-3)Gal(b1-4)[Fuc(a1-3)]GlcNAc
# Outline: as §1
# [20] = target: Neu5Ac(a2-6)Gal(b1-4)GlcNAc(b1-3)GalNAc
# Outline: as §1
# [21] = target: Neu5Ac(a2-6)Gal(b1-4)GlcNAc(b1-3)[Neu5Ac(a2-6)Gal(b1-4)GlcNAc(b1-6)]GalNAc
# Outline: as §1
# [22] = target: Neu5Ac(a2-6)Gal(b1-4)GlcNAc(b1-6)GalNAc
# Outline: as §1
# [23] = target: Neu5Ac(a2-6)Gal(b1-4)GlcNAc(b1-6)[Gal(b1-3)GlcNAc(b1-3)]Gal(b1-4)Glc
# Outline: as §1
# [24] = target: Neu5Ac(a2-6)Gal(b1-4)GlcNAc(b1-6)[Gal(b1-3)]GalNAc
# Outline: as §1
# [25] = target: Neu5Ac(a2-6)Gal(b1-4)GlcNAc6S
# Outline: as §1
# [26] = target: Neu5Ac(a2-6)GalNAc
# Outline: as §1
# [27] = target: Neu5Ac(a2-6)GalNAc(b1-4)GlcNAc
# Outline: as §1
# [28] = target: Neu5Ac(a2-6)GalNAc(b1-4)GlcNAc6S
# Outline: as §1
# [29] = target: Neu5Ac(a2-6)GlcNAc(b1-4)GlcNAc
# Outline: as §1
# [30] = target: Neu5Ac(a2-6)GlcNAc(b1-4)GlcNAc(b1-4)GlcNAc
# Outline: as §1
binder,measurement,setting,value
B1,glycan array binding signal (z-score),[1],-0.011
same,glycan array binding signal (z-score),[2],0.264
same,glycan array binding signal (z-score),[3],-0.821
same,glycan array binding signal (z-score),[4],-1.16
same,glycan array binding signal (z-score),[5],0.73
same,glycan array binding signal (z-score),[6],0.459
same,glycan array binding signal (z-score),[7],-0.26
same,glycan array binding signal (z-score),[8],0.548
same,glycan array binding signal (z-score),[9],-1.25
same,glycan array binding signal (z-score),[10],-1.04
same,glycan array binding signal (z-score),[11],-0.555
same,glycan array binding signal (z-score),[12],0.604
same,glycan array binding signal (z-score),[13],-0.099
same,glycan array binding signal (z-score),[14],-1.17
same,glycan array binding signal (z-score),[15],-0.631
same,glycan array binding signal (z-score),[16],-1.02
same,glycan array binding signal (z-score),[17],-0.529
same,glycan array binding signal (z-score),[18],-0.378
same,glycan array binding signal (z-score),[19],-0.211
same,glycan array binding signal (z-score),[20],-0.52
same,glycan array binding signal (z-score),[21],-0.595
same,glycan array binding signal (z-score),[22],-0.516
same,glycan array binding signal (z-score),[23],-0.069
same,glycan array binding signal (z-score),[24],-1.14
same,glycan array binding signal (z-score),[25],-1.24
same,glycan array binding signal (z-score),[26],-0.71
same,glycan array binding signal (z-score),[27],-0.654
same,glycan array binding signal (z-score),[28],-0.483
same,glycan array binding signal (z-score),[29],0.582
same,glycan array binding signal (z-score),[30],-0.673

# Two entries from above, bar-delimited.
binder | measurement | setting | value
B1 | glycan array binding signal (z-score) | [16] | -1.02
same | glycan array binding signal (z-score) | [17] | -0.529
